The record followed here is article PMC10163288.

Broadly, the apparent Kd is a dissociation constant that holds for the conditions of the assay.

B1: il2ra_site2_3nfp_sap_21_mot_HHH_b2_07083_af2_000000083_0001_42_56_H_._HHH_b1_04356_0001_0000200033_0000001_0_0001 (protein)
chain: SDPEHARAALWMAEVYALLHNDEELRETVRELKEELKEAAENNDEEKVERVAEKAAELIEEALES
B2: il2ra_site1_1z92_normal_mot_HHH_b1_01239_000000025_0001_23_39_H_._HHH_b1_03006_0001_0000400024_0000001_0_af2pred_0001_af2pred (protein)
chain: SSSSSDDAEEIAAELFRELARAKDPEEIREVYEEARRELEELNDPVAREDIERYYRAKESSSSSS
B3: il2ra_site1_2b5i_sap_8_mot_HHH_b2_07873_af2_000000005_0001_23_39_H_._HHH_b1_04022_0001_0000300020_0000001_0_0001 (protein)
chain: SSSSDDDELLVEAFIREVEELLKRGDPHRARSILHLARAVVKRLGNEELKEVLEELRKEIESSSS
B4: il2ra_site1_3nfp_normal_mot_HHH_b1_01335_af2_000000258_0001_39_53_H_._HHH_b1_05931_0001_0000500026_0000001_0_af2pred_0001_af2pred_swapped (protein)
chain: SSSSDVREEVEELLEEVEKLLKEGNPEEALRIIREAHKLAVEAGDEEALELVLKFLREVAKSSSS
B5: il2ra_site1_1z92_normal_mot_b1fbee8209167eaadba3689d49187f1a_0001_1_af2_000000019_0001_16_31_H_._2125cc8daba11e8455e4a581cdab7050_0001_af2_0001_0000100007_00000 … (protein)
chain: SAEEDLEQAEEIFGDPEKALKILVLIIADTHKVPPEEAIKRAKEVVRRLGDPELEELLEEIEKRL
B6: il2ra_site1_2b5i_normal_mot_HHH_b1_01419_af2_000000080_0001_42_53_H_._HHH_b1_05324_af2_0001_0000100004_0000001_0_af2pred_0001_af2pred_1 (protein)
chain: SSSSDEFERVFELFLQASRLFANGNPEEAREVVEEAIKLAREGGDEELEEQLEHFLRAIRGSSSS
B7: il2ra_site1_2b5i_sap_22_mot_HHH_b2_01283_af2_000000044_0001_1_16_H_._HHH_b1_00972_af2_0001_0000500028_0000001_0_0001 (protein)
chain: SSSSSDSREAIELFRKADELDRNGNPEEAREVLEQAEEIAEEAGSKSLLIMIRSALRSLDSSSSS
B8: il2ra_site2_2erj_sap_25_mot_HHH_b1_07741_000000192_0001_1_20_H_._8954e390f339e5555f03dd9a05a7d47e_0001_af2_0001_0000500014_0000001_0_0001 (protein)
chain: SSSSDEEEEKLEEFIERLVKELGLSEEQKEELEETLKIALERGVSPELIKRYLELAARDSSSSSS
B9: il2ra_site1_2b5i_sap_14_mot_0bad3e1dd0b580ac51794e340135530b_0001_af2_000000007_0001_1_12_H_._HHH_b2_03528_0001_0000500033_0000001_0_0001_af2pred_dldesign_0_af2 … (protein)
chain: SSSSDVEEQVEALLEEARRRKAAGEPLLARQLLTLARRLARKHKDPELIARVERVAAELGSSSSS
B10: il2ra_site1_3nfp_sap_11_mot_HHH_b2_05589_af2_000000060_0001_42_57_H_._HHH_b1_01268_0001_0000300020_0000001_0_0001_af2pred_0001_af2pred (protein)
chain: DELATELLRIAAEKNSELLLEKIVRDVLSRAGDPEEARKILEKLAELAGVPPEVEEKLEELLERR
B11: il2ra_site1_1z92_normal_mot_HHH_b2_05734_000000004_0001_1_18_H_._ad81070c4fcd12ba5f163adb410dbfa5_0001_af2_0001_0000200011_0000001_0_af2pred_0001_af2pred_1 (protein)
chain: SLEEELRRILKEAGLPPRQIEFLLRFAERRAGGDPREIIELLIRFLERSGDPEIAEELEKLLERT
B12: il2ra_site2_2erj_sap_14_mot_ems_3hC_936_0002_000000155_0001_4_19_H_._HHH_b1_05540_0001_0000300003_0000001_0_0001 (protein)
chain: SSSSSEELHRLYELANALLKLLTEGDEEEVEKVLKELEELAERADSPVAREIVESVRRKLSSSSS
B13: il2ra_site2_2erj_normal_mot_HHH_b1_03609_af2_000000077_0001_42_55_H_._HHH_b1_01470_af2_0002_0000600021_0000001_0 (protein)
chain: SSSSSEEVERLLKEAEELIERGNPEEAEEVLRRASELAFRLNDFELWSQISELLRELARLESSSS
B14: il2ra_site2_3nfp_sap_19_mot_HHH_b1_06158_af2_000000274_0001_1_17_H_._HHH_b1_07117_af2_0001_0000400020_0000001_0_0001 (protein)
chain: SSSSDVEELLREVEELLERGNLYEAAQVLMEASELAAKLGDPELARAVLELFKLLAERSRKSSSS
B15: il2ra_site2_2erj_sap_27_mot_HHH_b2_01204_af2_000000051_0001_19_34_H_._HHH_b1_08325_af2_0001_0000600012_0000001_1_0001 (protein)
chain: SSSSEDAQKAYELAREIDELLEEGDREEVEELLRELERIAEKLDSETLREAIENLEKQLEEASSS
B16: il2ra_site1_1z92_sap_17_mot_HHH_b1_01166_000000207_0001_22_38_H_._ems_3hC_185_af2_0001_0000100007_0000001_0_0001 (protein)
chain: SSSSDLEEIAEEIVKELVEEFGLSEHDEEALRKDAEAAVRLGFSPHSIELALRRAAERALSSSSS
B17: il2ra_site2_3nfp_normal_mot_HHH_b1_00005_000000120_0001_40_55_H_._HHH_b1_00556_0001_0000500030_0000001_0_af2pred_0001_af2pred (protein)
chain: SSSSDEEEREVRELIEQAEEARKEGDEKLLLRLLLRISKLVRELNNPELIELLLELIRKNQSSSS
B18: il2ra_site2_3nfp_sap_24_mot_HHH_b2_04927_af2_000000190_0001_39_52_H_._3c6ad1a4bc7d4f5cf55cee527202d42a_0001_af2_0001_0000900035_0000001_0_0001 (protein)
chain: DSLEELAREAREEGDPALLDAVTWAIVLEEQGVPPERIEKMVRYYLEALGVPPEEIEEILELLKK

The other results are listed elsewhere or left out.

This assay deals with il2ra, P01589. The assay can be described thus: yeast display titration.
B1: the “apparent Kd” value is “inactive: no binding seen”.

Take B2: the “apparent Kd” value was “inactive: no binding seen”.

Turning to B3, the “apparent Kd” value was “inactive: no binding seen”.

For B4, the “apparent Kd” value is “inactive: no binding seen”.

As for B5, the “apparent Kd” value is “inactive: no binding seen”.

Turning to B6, the “apparent Kd” value is “inactive: no binding seen”.

As to B7, the “apparent Kd” value is “inactive: no binding seen”.

Take B8: the “apparent Kd” value is “inactive: no binding seen”.

B9: the “apparent Kd” value was “inactive: no binding seen”.

Turning to B10, the “apparent Kd” value was “inactive: no binding seen”.

Regarding B11, the apparent Kd is inactive: > 0.279 µM.

Regarding B12, the “apparent Kd” value was “inactive: no binding seen”.

Consider B13, for which the “apparent Kd” value was “inactive: no binding seen”.

On to B14, for which the “apparent Kd” value is “inactive: no binding seen”.

B15: the “apparent Kd” value was “inactive: no binding seen”.

Consider B16, for which the “apparent Kd” value is “inactive: no binding seen”.

B17: the “apparent Kd” value was “inactive: no binding seen”.

B18: the “apparent Kd” value is “inactive: no binding seen”.
